No constants are given. Whether binding was seen depends on the method and setting. Binding seen in cells or lysates may run through a third protein. Here binding means that the protein was enriched with, or labelled near, the bait; the list need not be complete.

By UniProt entry, the sequences of proteins in these tests, tags left out.
UniProt P0DMV8: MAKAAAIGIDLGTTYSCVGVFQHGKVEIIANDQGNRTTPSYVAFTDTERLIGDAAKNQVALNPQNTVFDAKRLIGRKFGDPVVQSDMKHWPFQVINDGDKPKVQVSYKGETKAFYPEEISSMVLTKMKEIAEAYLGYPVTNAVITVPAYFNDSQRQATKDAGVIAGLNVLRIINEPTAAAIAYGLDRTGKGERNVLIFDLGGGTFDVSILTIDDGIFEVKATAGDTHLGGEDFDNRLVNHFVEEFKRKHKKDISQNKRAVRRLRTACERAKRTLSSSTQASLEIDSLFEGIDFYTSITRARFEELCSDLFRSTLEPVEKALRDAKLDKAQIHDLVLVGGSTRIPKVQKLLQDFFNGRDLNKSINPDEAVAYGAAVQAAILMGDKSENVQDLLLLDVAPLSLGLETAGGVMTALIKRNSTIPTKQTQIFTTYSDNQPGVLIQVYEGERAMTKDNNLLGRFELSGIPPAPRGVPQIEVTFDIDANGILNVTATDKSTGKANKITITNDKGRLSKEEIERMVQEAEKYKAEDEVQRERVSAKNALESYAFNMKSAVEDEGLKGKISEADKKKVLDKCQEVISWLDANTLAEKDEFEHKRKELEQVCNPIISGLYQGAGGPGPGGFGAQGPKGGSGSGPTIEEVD

Assay [1] deals with T1, BirA-Plek2 (UniProt Q9WV52).
T1 sequence: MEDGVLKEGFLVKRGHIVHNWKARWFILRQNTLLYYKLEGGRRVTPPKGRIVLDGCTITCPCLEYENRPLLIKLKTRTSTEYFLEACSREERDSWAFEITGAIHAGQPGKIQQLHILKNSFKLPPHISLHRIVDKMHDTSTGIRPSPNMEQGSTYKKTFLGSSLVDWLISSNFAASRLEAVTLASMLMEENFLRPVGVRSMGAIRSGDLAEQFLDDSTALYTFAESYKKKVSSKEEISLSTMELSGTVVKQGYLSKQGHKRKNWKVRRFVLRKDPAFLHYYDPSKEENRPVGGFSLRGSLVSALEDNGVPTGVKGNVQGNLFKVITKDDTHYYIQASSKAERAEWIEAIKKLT
As to the kind of experiment: proximity labelling; 293T cells expressing BirA-Plek2, biotin, streptavidin magnetic beads; band around 70 kDa cut out and analysed by mass spectrometry.

For assay [2], the target named is T1, BirA-Plek2. The assay can be described thus: proximity labelling; 293T cells transfected with BirA-Plek2 and incubated with biotin (50 uM), bead-conjugated streptavidin pull-down, Western blot after SDS-PAGE. (In western blotting, separated proteins are transferred to a membrane and probed.)

On to Hsp72 (from UniProt P0DMV8 1-641), for which the binding entry with BirA-Plek2 [1] and in the assay with BirA-Plek2 [2] was “binds” throughout.

The record behind these values is article PMC10014099.
